The results in this text go back to article PMC5159891.

For at least one entry, the source does not settle the construct or the ends of the probe. A negative result means that nothing was seen under these conditions. At least one verdict rests on a figure or table, not on a statement of the authors. Where a protein sequence is shown, tags need not be part of it.

This data set deals with T1, CREB3L3 active form (in vitro translated) (Homo sapiens) (UniProt Q68CJ9).
T1 sequence (looked up): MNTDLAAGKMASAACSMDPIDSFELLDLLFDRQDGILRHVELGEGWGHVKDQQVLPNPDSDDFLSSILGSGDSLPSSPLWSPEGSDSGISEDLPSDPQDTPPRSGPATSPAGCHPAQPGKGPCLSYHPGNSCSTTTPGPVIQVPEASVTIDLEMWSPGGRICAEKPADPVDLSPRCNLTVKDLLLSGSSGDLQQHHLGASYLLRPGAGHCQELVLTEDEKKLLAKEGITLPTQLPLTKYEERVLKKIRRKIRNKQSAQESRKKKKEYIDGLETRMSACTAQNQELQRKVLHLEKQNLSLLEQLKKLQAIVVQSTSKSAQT
Kind of data set: EMSA. The following applies: EMSA with in vitro-translated lysate, 4% polyacrylamide gel; buffer as previously described (ref 43), pH and temperature not stated; protein translated in …; residues 1-320. In general terms: In EMSA bound probe runs differently from free probe, usually more slowly.
In the case of “GAAAACCTGGTGACGTTGGCTGAGCAAATA (double strand) [Cpt1a promoter CRE WT]”, the binding result is “binds”. With “GCTTACTTTCCTGGCCTTGCTCAGGGTTCTCTGG (double strand) [Bdh1 promoter -200 to -166]” the entry was “no binding”. Regarding “GTCTACCCTTGATCTTCTGCTTGCCAGAGGGT (double strand) [Bdh1 promoter -126 to -98]”, the binding result is reported as “binds”.

For the sequence “GTGTGTGTCCCTTAGCTGCAGCGTCTACCCTTGAT (double strand) [Bdh1 promoter -151 to -117]”, the binding result was “no binding”. “GTTCTCTGGCTGTGTGTGTGTGTGTGTGTGTCC (double strand) [Bdh1 promoter -175 to -141]”: the binding result is given as “no binding”.
